Values are relative to the signal before dosing, not to a vehicle control; the signal also falls without drug.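 Labels refer to human fibroblasts, largely primary: uterine (C12385, HUF), lung (H6013), bone (Hs27A), adrenal (HADF), skin (WS1), plus mammary HMF and breast cancer-associated Hs343T. Cancer lines are basal-like or mesenchymal-like triple-negative breast cancer. The paper counts as hits responses shifting over 3x the replicate standard deviation. The tissue of the other fibroblasts is not given here.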
Test system: MDAMB468
Experiment: relative JC-1 red fluorescence (viability) vs pre-drug, coculture with fibroblast (fraction); higher = more viable cancer cells
Procedure: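 JC-1 labelled TNBC cells cocultured 1:1 (1,500 cells each) with CellTrace Violet stained primary or stromal fibroblasts in 384-well plates in FluoroBrite medium, treated with one of 42 anticancer drugs at 0.1, 1, 10 or 100 uM. JC-1 red fluorescence (mitochondrial integrity in cancer cells only) was read by plate reader every 8 h for 72 h. Values are normalised to each well's pre-drug value. The stock of one drug was tenfold lower, so its dose labels may be too high.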

CS(=O)(=O)CCNCc1ccc(-c2ccc3ncnc(Nc4ccc(OCc5cccc(F)c5)c(Cl)c4)c3c2)o1 [Lapatinib]
relative JC-1 red fluorescence
Conditions | 8 h | 16 h | 24 h | 32 h | 40 h | 48 h | 56 h | 64 h | 72 h
0.1 µM, coculture fibroblast: C12385 | 0.8919 | 0.848 | 0.7953 | 0.716 | 0.648 | 0.6237 | 0.585 | 0.547 | 0.535
0.1 µM, coculture fibroblast: H6013 | 0.877 | 0.823 | 0.7977 | 0.7901 | 0.749 | 0.755 | 0.722 | 0.7026 | 0.6628
0.1 µM, coculture fibroblast: H6019 | 0.852 | 0.8 | 0.765 | 0.697 | 0.652 | 0.626 | 0.577 | 0.54 | 0.513
0.1 µM, coculture fibroblast: H6076 | 0.96 | 0.841 | 0.889 | 0.8834 | 0.824 | 0.813 | 0.773 | 0.748 | 0.797
0.1 µM, coculture fibroblast: H6231 | 0.83992 | 0.959 | 0.875 | 0.84 | 0.797 | 0.773 | 0.722 | 0.701 | 0.681
0.1 µM, coculture fibroblast: HADF | 0.8802 | 0.851 | 0.765 | 0.748 | 0.696 | 0.671 | 0.638 | 0.626 | 0.593
0.1 µM, coculture fibroblast: HCFa | 0.863 | 0.789 | 0.738 | 0.706 | 0.631 | 0.612 | 0.562 | 0.525 | 0.482
0.1 µM, coculture fibroblast: HCPF | 0.8774 | 0.909 | 0.89 | 0.8714 | 0.81 | 0.78 | 0.724 | 0.705 | 0.699
0.1 µM, coculture fibroblast: HHSteC | 0.914 | 0.868 | 0.8132 | 0.794 | 0.739 | 0.735 | 0.672 | 0.649 | 0.596
0.1 µM, coculture fibroblast: HMF | 0.854 | 0.935 | 0.855 | 0.866 | 0.8 | 0.791 | 0.747 | 0.739 | 0.737
0.1 µM, coculture fibroblast: HPFa | 0.921 | 0.909 | 0.84 | 0.787 | 0.751 | 0.746 | 0.684 | 0.656 | 0.581
0.1 µM, coculture fibroblast: HUF | 0.931 | 0.8534 | 0.806 | 0.752 | 0.703 | 0.682 | 0.637 | 0.615 | 0.606
0.1 µM, coculture fibroblast: Hs5 | 0.839 | 0.75 | 0.957 | 0.93 | 0.86 | 0.833 | 0.787 | 0.748 | 0.78
0.1 µM, coculture fibroblast: Hs27A | 0.8586 | 0.7769 | 0.7626 | 0.7706 | 0.711 | 0.7 | 0.667 | 0.6428 | 0.6015
0.1 µM, coculture fibroblast: Hs343T | 0.9 | 0.84 | 0.868 | 0.83 | 0.762 | 0.737 | 0.68 | 0.669 | 0.641
0.1 µM, coculture fibroblast: WS1 | 0.9022 | 0.814 | 0.747 | 0.69 | 0.643 | 0.607 | 0.579 | 0.554 | 0.546
1 µM, coculture fibroblast: C12385 | 0.917 | 0.884 | 0.858 | 0.811 | 0.771 | 0.746 | 0.707 | 0.678 | 0.6581
1 µM, coculture fibroblast: H6013 | 0.899 | 0.89987 | 0.857 | 0.848 | 0.83 | 0.836 | 0.796 | 0.783 | 0.726
1 µM, coculture fibroblast: H6019 | 0.847 | 0.825 | 0.789 | 0.739 | 0.693 | 0.665 | 0.6218 | 0.5898 | 0.569
1 µM, coculture fibroblast: H6076 | 0.934 | 0.9431 | 0.8984 | 0.9016 | 0.83105 | 0.82243 | 0.8087 | 0.782 | 0.8128
1 µM, coculture fibroblast: H6231 | 0.853 | 0.931 | 0.892 | 0.8861 | 0.828 | 0.818 | 0.778 | 0.759 | 0.735
1 µM, coculture fibroblast: HADF | 0.902 | 0.927 | 0.877 | 0.87336 | 0.833 | 0.824 | 0.788 | 0.783 | 0.747
1 µM, coculture fibroblast: HCFa | 0.9207 | 0.9218 | 0.88076 | 0.8501 | 0.803 | 0.789 | 0.747 | 0.704 | 0.646
1 µM, coculture fibroblast: HCPF | 0.876 | 0.972 | 0.896 | 0.873 | 0.8113 | 0.772 | 0.717 | 0.709 | 0.697
1 µM, coculture fibroblast: HHSteC | 0.9306 | 0.935 | 0.909 | 0.885 | 0.859 | 0.846 | 0.7822 | 0.7458 | 0.6955
1 µM, coculture fibroblast: HMF | 0.861 | 0.956 | 0.907 | 0.8934 | 0.828 | 0.82 | 0.771 | 0.75 | 0.729
1 µM, coculture fibroblast: HPFa | 0.877 | 0.964 | 0.941 | 0.897 | 0.864 | 0.858 | 0.788 | 0.759 | 0.676
1 µM, coculture fibroblast: HUF | 0.92373 | 0.8674 | 0.828 | 0.77009 | 0.723 | 0.7014 | 0.6606 | 0.635 | 0.609
1 µM, coculture fibroblast: Hs5 | 0.915 | 0.954 | 0.9164 | 0.882 | 0.8112 | 0.7917 | 0.749 | 0.7148 | 0.72158
1 µM, coculture fibroblast: Hs27A | 0.8932 | 0.91966 | 0.852 | 0.862 | 0.8103 | 0.7991 | 0.7686 | 0.74086 | 0.713
1 µM, coculture fibroblast: Hs343T | 0.904 | 0.934 | 0.954 | 0.933 | 0.874 | 0.87 | 0.839 | 0.83 | 0.815
1 µM, coculture fibroblast: WS1 | 0.87 | 0.8446 | 0.8125 | 0.767 | 0.742 | 0.714 | 0.681 | 0.658 | 0.643

— the supplement of paper PMC6078165
